# Results taken from the supplement of paper PMC8728848.
# Some of the results follow.
# B1: EUL D1A second (Oryza sativa) (protein)
# chain: GAATACTIGGVPVHTVRVFSAAGEDYCLTVRNGTACLAPKNPRDDYQHWIKDMRHSNKIRDEEGYPAFALVNKVTGEAIKHSTGQGHPVKLVPYNPEYQDESVLWTESKDVGKGFRCIRMVNNIYLNFDAFHGDKDHGGIHDGTEIVLWKWCEGDNQRWKILPWILEQKLISEEDLNSAVDHHHHHH
# Key:
# Assay in all cases: glycan array binding signal (z-score within array); higher = stronger binding
# Conditions in all cases: glycan notation: IUPAC condensed, linker removed
# Neu5Ac(a2-3)GalNAc = molecular target: Neu5Ac(a2-3)GalNAc
# Procedure, shortened: (§1)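 Negative Z-scores can be read as non-binding. The Z-score is calculated within each array and then averaged across arrays of one protein sequence at different concentrations or buffers and across linkers. Arrays, 3228 in all, were curated from the Consortium for Functional Glycomics database and kept only where the protein sequence was available.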
# [1] = molecular target: Neu5Ac(a2-3)GalNAc(b1-4)GlcNAc
# Procedure, shortened: as §1
# [2] = molecular target: Neu5Ac(a2-3)[GalNAc(b1-4)]Gal(b1-4)Glc
# Procedure, shortened: as §1
# [3] = molecular target: Neu5Ac(a2-3)[GalNAc(b1-4)]Gal(b1-4)GlcNAc
# Procedure, shortened: as §1
# [4] = molecular target: Neu5Ac(a2-3)[GalNAc(b1-4)]Gal(b1-4)GlcNAc(b1-3)GalNAc
# Procedure, shortened: as §1
# [5] = molecular target: Neu5Ac(a2-3)[Neu5Ac(a2-6)]GalNAc
# Procedure, shortened: as §1
# Neu5Ac(a2-6)Gal = molecular target: Neu5Ac(a2-6)Gal
# Procedure, shortened: as §1
# [6] = molecular target: Neu5Ac(a2-6)Gal(b1-3)GlcNAc(b1-3)[Gal(b1-4)GlcNAc(b1-6)]Gal(b1-4)Glc
# Procedure, shortened: as §1
# Neu5Ac(a2-6)Gal(b1-4)Glc = molecular target: Neu5Ac(a2-6)Gal(b1-4)Glc
# Procedure, shortened: as §1
# [7] = molecular target: Neu5Ac(a2-6)Gal(b1-4)GlcNAc
# Procedure, shortened: as §1
# [8] = molecular target: Neu5Ac(a2-6)Gal(b1-4)GlcNAc(b1-2)Man
# Procedure, shortened: as §1
# [9] = molecular target: Neu5Ac(a2-6)Gal(b1-4)GlcNAc(b1-2)Man(a1-3)Man(b1-4)GlcNAc(b1-4)GlcNAc
# Procedure, shortened: as §1
# [10] = molecular target: Neu5Ac(a2-6)Gal(b1-4)GlcNAc(b1-2)Man(a1-3)[Gal(b1-4)GlcNAc(b1-2)Man(a1-6)]Man(b1-4)GlcNAc(b1-4)GlcNAc
# Procedure, shortened: as §1
# [11] = molecular target: Neu5Ac(a2-6)Gal(b1-4)GlcNAc(b1-2)Man(a1-3)[GlcNAc(b1-2)Man(a1-6)]Man(b1-4)GlcNAc(b1-4)GlcNAc
# Procedure, shortened: as §1
# [12] = molecular target: Neu5Ac(a2-6)Gal(b1-4)GlcNAc(b1-2)Man(a1-3)[GlcNAc(b1-4)][Neu5Ac(a2-6)Gal(b1-4)GlcNAc(b1-2)Man(a1-6)]Man(b1-4)GlcNAc(b1-4)GlcNAc
# Procedure, shortened: as §1
# [13] = molecular target: Neu5Ac(a2-6)Gal(b1-4)GlcNAc(b1-2)Man(a1-3)[Man(a1-6)]Man(b1-4)GlcNAc(b1-4)GlcNAc
# Procedure, shortened: as §1
# [14] = molecular target: Neu5Ac(a2-6)Gal(b1-4)GlcNAc(b1-2)Man(a1-3)[Neu5Ac(a2-3)Gal(b1-4)GlcNAc(b1-2)Man(a1-6)]Man(b1-4)GlcNAc(b1-4)GlcNAc
# Procedure, shortened: as §1
# [15] = molecular target: Neu5Ac(a2-6)Gal(b1-4)GlcNAc(b1-2)Man(a1-3)[Neu5Ac(a2-6)Gal(b1-4)GlcNAc(b1-2)Man(a1-6)]Man(b1-4)GlcNAc(b1-4)GlcNAc
# Procedure, shortened: as §1
# [16] = molecular target: Neu5Ac(a2-6)Gal(b1-4)GlcNAc(b1-2)Man(a1-3)[Neu5Ac(a2-6)Gal(b1-4)GlcNAc(b1-2)Man(a1-6)]Man(b1-4)GlcNAc(b1-4)[Fuc(a1-6)]GlcNAc
# Procedure, shortened: as §1
# [17] = molecular target: Neu5Ac(a2-6)Gal(b1-4)GlcNAc(b1-2)Man(a1-6)Man(b1-4)GlcNAc(b1-4)GlcNAc
# Procedure, shortened: as §1
# [18] = molecular target: Neu5Ac(a2-6)Gal(b1-4)GlcNAc(b1-2)Man(a1-6)[Gal(b1-4)GlcNAc(b1-2)Man(a1-3)]Man(b1-4)GlcNAc(b1-4)GlcNAc
# Procedure, shortened: as §1
# [19] = molecular target: Neu5Ac(a2-6)Gal(b1-4)GlcNAc(b1-2)Man(a1-6)[GlcNAc(b1-2)Man(a1-3)]Man(b1-4)GlcNAc(b1-4)GlcNAc
# Procedure, shortened: as §1
# [20] = molecular target: Neu5Ac(a2-6)Gal(b1-4)GlcNAc(b1-2)Man(a1-6)[Man(a1-3)]Man(b1-4)GlcNAc(b1-4)GlcNAc
# Procedure, shortened: as §1
# [21] = molecular target: Neu5Ac(a2-6)Gal(b1-4)GlcNAc(b1-2)[Neu5Ac(a2-6)Gal(b1-4)GlcNAc(b1-4)]Man(a1-3)[GlcNAc(b1-4)][Neu5Ac(a2-6)Gal(b1-4)GlcNAc(b1-2)[Neu5Ac(a2-6)Gal(b1-4)GlcNAc(b1-6)]Man(a1-6)]Man(b1-4)GlcNAc(b1-4)GlcNAc
# Procedure, shortened: as §1
# [22] = molecular target: Neu5Ac(a2-6)Gal(b1-4)GlcNAc(b1-2)[Neu5Ac(a2-6)Gal(b1-4)GlcNAc(b1-4)]Man(a1-3)[GlcNAc(b1-4)][Neu5Ac(a2-6)Gal(b1-4)GlcNAc(b1-4)Man(a1-6)]Man(b1-4)GlcNAc(b1-4)GlcNAc
# Procedure, shortened: as §1
# [23] = molecular target: Neu5Ac(a2-6)Gal(b1-4)GlcNAc(b1-2)[Neu5Ac(a2-6)Gal(b1-4)GlcNAc(b1-6)]Man(a1-6)[Neu5Ac(a2-6)Gal(b1-4)GlcNAc(b1-2)Man(a1-3)][GlcNAc(b1-4)]Man(b1-4)GlcNAc(b1-4)GlcNAc
# Procedure, shortened: as §1
# [24] = molecular target: Neu5Ac(a2-6)Gal(b1-4)GlcNAc(b1-3)Gal(b1-3)GlcNAc
# Procedure, shortened: as §1
# [25] = molecular target: Neu5Ac(a2-6)Gal(b1-4)GlcNAc(b1-3)Gal(b1-4)GlcNAc
# Procedure, shortened: as §1
# [26] = molecular target: Neu5Ac(a2-6)Gal(b1-4)GlcNAc(b1-3)Gal(b1-4)GlcNAc(b1-2)Man(a1-3)[Neu5Ac(a2-6)Gal(b1-4)GlcNAc(b1-3)Gal(b1-4)GlcNAc(b1-2)Man(a1-6)]GalNAc
# Procedure, shortened: as §1
# [27] = molecular target: Neu5Ac(a2-6)Gal(b1-4)GlcNAc(b1-3)Gal(b1-4)GlcNAc(b1-3)Gal(b1-4)GlcNAc
# Procedure, shortened: as §1
# [28] = molecular target: Neu5Ac(a2-6)Gal(b1-4)GlcNAc(b1-3)Gal(b1-4)GlcNAc(b1-3)Gal(b1-4)GlcNAc(b1-2)Man(a1-3)[Neu5Ac(a2-6)Gal(b1-4)GlcNAc(b1-3)Gal(b1-4)GlcNAc(b1-3)Gal(b1-4)GlcNAc(b1-2)Man(a1-6)]GalNAc
# Procedure, shortened: as §1
# [29] = molecular target: Neu5Ac(a2-6)Gal(b1-4)GlcNAc(b1-3)Gal(b1-4)GlcNAc(b1-3)GalNAc
# Procedure, shortened: as §1
# [30] = molecular target: Neu5Ac(a2-6)Gal(b1-4)GlcNAc(b1-3)Gal(b1-4)GlcNAc(b1-3)[Neu5Ac(a2-6)Gal(b1-4)GlcNAc(b1-3)Gal(b1-4)GlcNAc(b1-6)]GalNAc
# Procedure, shortened: as §1
# [31] = molecular target: Neu5Ac(a2-6)Gal(b1-4)GlcNAc(b1-3)Gal(b1-4)GlcNAc(b1-6)[Gal(b1-3)]GalNAc
# Procedure, shortened: as §1
# [32] = molecular target: Neu5Ac(a2-6)Gal(b1-4)GlcNAc(b1-3)Gal(b1-4)[Fuc(a1-3)]GlcNAc(b1-3)Gal(b1-4)[Fuc(a1-3)]GlcNAc
# Procedure, shortened: as §1
# [33] = molecular target: Neu5Ac(a2-6)Gal(b1-4)GlcNAc(b1-3)GalNAc
# Procedure, shortened: as §1
# [34] = molecular target: Neu5Ac(a2-6)Gal(b1-4)GlcNAc(b1-3)[Neu5Ac(a2-6)Gal(b1-4)GlcNAc(b1-6)]GalNAc
# Procedure, shortened: as §1
# [35] = molecular target: Neu5Ac(a2-6)Gal(b1-4)GlcNAc(b1-6)GalNAc
# Procedure, shortened: as §1
# [36] = molecular target: Neu5Ac(a2-6)Gal(b1-4)GlcNAc(b1-6)[Gal(b1-3)GlcNAc(b1-3)]Gal(b1-4)Glc
# Procedure, shortened: as §1
# [37] = molecular target: Neu5Ac(a2-6)Gal(b1-4)GlcNAc(b1-6)[Gal(b1-3)]GalNAc
# Procedure, shortened: as §1
# [38] = molecular target: Neu5Ac(a2-6)Gal(b1-4)GlcNAc6S
# Procedure, shortened: as §1
# Neu5Ac(a2-6)GalNAc = molecular target: Neu5Ac(a2-6)GalNAc
# Procedure, shortened: as §1
# [39] = molecular target: Neu5Ac(a2-6)GalNAc(b1-4)GlcNAc
# Procedure, shortened: as §1
# [40] = molecular target: Neu5Ac(a2-6)GalNAc(b1-4)GlcNAc6S
# Procedure, shortened: as §1
# [41] = molecular target: Neu5Ac(a2-6)GlcNAc(b1-4)GlcNAc
# Procedure, shortened: as §1
binder,measurement,setting,value
B1,glycan array binding signal (z-score),Neu5Ac(a2-3)GalNAc,0.166
same,glycan array binding signal (z-score),[1],-0.477
same,glycan array binding signal (z-score),[2],-1.43
same,glycan array binding signal (z-score),[3],-0.224
same,glycan array binding signal (z-score),[4],0.459
same,glycan array binding signal (z-score),[5],-0.898
same,glycan array binding signal (z-score),Neu5Ac(a2-6)Gal,0.222
same,glycan array binding signal (z-score),[6],0.694
same,glycan array binding signal (z-score),Neu5Ac(a2-6)Gal(b1-4)Glc,0.113
same,glycan array binding signal (z-score),[7],-0.437
same,glycan array binding signal (z-score),[8],-1.55
same,glycan array binding signal (z-score),[9],0.287
same,glycan array binding signal (z-score),[10],-0.317
same,glycan array binding signal (z-score),[11],-0.124
same,glycan array binding signal (z-score),[12],0.522
same,glycan array binding signal (z-score),[13],0.117
same,glycan array binding signal (z-score),[14],-0.939
same,glycan array binding signal (z-score),[15],-0.148
same,glycan array binding signal (z-score),[16],2.19
same,glycan array binding signal (z-score),[17],0.375
same,glycan array binding signal (z-score),[18],0.343
same,glycan array binding signal (z-score),[19],0.587
same,glycan array binding signal (z-score),[20],0.268
same,glycan array binding signal (z-score),[21],1.71
same,glycan array binding signal (z-score),[22],0.628
same,glycan array binding signal (z-score),[23],-0.994
same,glycan array binding signal (z-score),[24],1.03
same,glycan array binding signal (z-score),[25],0.827
same,glycan array binding signal (z-score),[26],-0.214
same,glycan array binding signal (z-score),[27],-2.05
same,glycan array binding signal (z-score),[28],1.31
same,glycan array binding signal (z-score),[29],0.615
same,glycan array binding signal (z-score),[30],2.08
same,glycan array binding signal (z-score),[31],-0.232
same,glycan array binding signal (z-score),[32],-0.371
same,glycan array binding signal (z-score),[33],0.463
same,glycan array binding signal (z-score),[34],2.81
same,glycan array binding signal (z-score),[35],1.01
same,glycan array binding signal (z-score),[36],0.242
same,glycan array binding signal (z-score),[37],0.124
same,glycan array binding signal (z-score),[38],-2.01
same,glycan array binding signal (z-score),Neu5Ac(a2-6)GalNAc,-0.843
same,glycan array binding signal (z-score),[39],-1.36
same,glycan array binding signal (z-score),[40],-0.158
same,glycan array binding signal (z-score),[41],-0.238

# Shown with tabs: entries from further up.
binder	measurement	setting	value
B1	glycan array binding signal (z-score)	[1]	-0.477
same	glycan array binding signal (z-score)	[2]	-1.43
same	glycan array binding signal (z-score)	[3]	-0.224
